According to patent publication US20120190612A1, “METHODS OF TREATMENT” (CRC FOR ASTHMA AND AIRWAYS LTD., priority 2009, published 2012):
These are yes or no findings as the source states them, for the method shown. Some binding calls cover weakened binding; strength is not graded here.

The chains behind the UniProt entries cited, without tags or fusion partners. Residues count along the entry.
UniProt P05556: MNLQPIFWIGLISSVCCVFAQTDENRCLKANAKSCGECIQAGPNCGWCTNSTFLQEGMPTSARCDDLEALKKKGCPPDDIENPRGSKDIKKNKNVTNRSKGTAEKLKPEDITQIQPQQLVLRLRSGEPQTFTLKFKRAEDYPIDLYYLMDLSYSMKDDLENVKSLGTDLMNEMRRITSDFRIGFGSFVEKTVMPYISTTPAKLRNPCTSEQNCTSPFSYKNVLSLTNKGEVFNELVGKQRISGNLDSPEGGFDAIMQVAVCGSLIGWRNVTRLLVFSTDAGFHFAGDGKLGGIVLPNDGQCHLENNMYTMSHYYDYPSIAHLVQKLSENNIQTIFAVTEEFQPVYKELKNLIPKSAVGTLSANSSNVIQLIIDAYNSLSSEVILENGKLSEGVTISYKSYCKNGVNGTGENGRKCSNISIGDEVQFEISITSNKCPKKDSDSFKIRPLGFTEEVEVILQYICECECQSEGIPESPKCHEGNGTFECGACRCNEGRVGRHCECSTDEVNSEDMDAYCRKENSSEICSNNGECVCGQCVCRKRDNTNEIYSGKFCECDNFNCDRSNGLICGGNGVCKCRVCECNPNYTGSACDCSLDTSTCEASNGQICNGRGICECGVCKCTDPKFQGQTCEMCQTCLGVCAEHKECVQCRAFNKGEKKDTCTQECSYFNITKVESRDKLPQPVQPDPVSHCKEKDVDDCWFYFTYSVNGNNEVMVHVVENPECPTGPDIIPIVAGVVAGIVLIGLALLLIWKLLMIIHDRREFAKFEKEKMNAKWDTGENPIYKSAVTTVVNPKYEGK
UniProt P08648, residues 42-1049: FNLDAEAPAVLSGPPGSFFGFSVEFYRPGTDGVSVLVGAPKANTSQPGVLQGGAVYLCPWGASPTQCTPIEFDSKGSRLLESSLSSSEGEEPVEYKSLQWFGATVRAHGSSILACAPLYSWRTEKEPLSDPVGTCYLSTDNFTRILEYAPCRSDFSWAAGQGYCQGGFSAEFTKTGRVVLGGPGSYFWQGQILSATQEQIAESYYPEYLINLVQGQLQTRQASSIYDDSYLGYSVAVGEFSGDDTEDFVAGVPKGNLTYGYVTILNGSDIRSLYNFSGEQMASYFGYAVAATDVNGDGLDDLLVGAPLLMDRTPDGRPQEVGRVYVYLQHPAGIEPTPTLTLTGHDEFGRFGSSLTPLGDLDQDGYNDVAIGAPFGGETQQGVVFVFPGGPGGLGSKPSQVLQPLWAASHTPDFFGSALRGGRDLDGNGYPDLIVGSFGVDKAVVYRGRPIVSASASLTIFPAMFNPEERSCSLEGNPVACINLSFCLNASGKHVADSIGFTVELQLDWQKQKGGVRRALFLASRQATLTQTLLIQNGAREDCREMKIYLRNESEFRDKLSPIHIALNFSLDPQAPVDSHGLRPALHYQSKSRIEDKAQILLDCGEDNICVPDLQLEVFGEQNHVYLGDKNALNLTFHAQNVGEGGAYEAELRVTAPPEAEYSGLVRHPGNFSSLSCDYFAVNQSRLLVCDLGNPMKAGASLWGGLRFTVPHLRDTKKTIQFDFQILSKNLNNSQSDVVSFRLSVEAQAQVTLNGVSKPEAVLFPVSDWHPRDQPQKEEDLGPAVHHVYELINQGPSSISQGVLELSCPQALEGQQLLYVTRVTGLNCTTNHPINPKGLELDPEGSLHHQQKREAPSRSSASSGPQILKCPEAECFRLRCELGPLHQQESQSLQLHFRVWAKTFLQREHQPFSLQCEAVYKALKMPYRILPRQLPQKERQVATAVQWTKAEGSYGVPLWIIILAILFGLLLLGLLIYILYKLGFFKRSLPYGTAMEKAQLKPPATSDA

Legend:
[1] = target: integrin β1 on HMVEC-LLy cells (human) (UniProt P05556); test: HMVEC-LLy cell attachment with anti-integrin antibodies, CP17 5 µM
[2] = target: integrin α5 on HMVEC-LLy cells (human) (UniProt P08648); test: as above
[3] = target: integrin β1 on HMVEC-LLy cells (human) (UniProt P05556); test: HMVEC-LLy cell binding in vitro, integrin identification
[4] = target: integrin α5 on HMVEC-LLy cells (human) (UniProt P08648); test: as above

- binding [1]: binds
- binding [2]: binds
- binding [3]: binds
- binding [4]: binds
Binder: VCNFASRNDYSYWLSTP [peptide CP17]
